{"source": "PubChem BioAssay AID624297", "about": "(National Center for Advancing Translational Sciences (NCATS), 2012)", "note": "The whole screen tested about 340,000 compounds, of which about 6,200 (1.8%) were called active. This list was built around the results that the source calls inconclusive (neither active nor inactive); the mix of calls is not that of the screen. Calls follow the shape of the dose curve; as a rule, active = well fitted activation curve with a large enough effect; inconclusive = small, poorly fitted or top-dose-only effect; inactive = no such curve, though single readings can be large or run the other way. Where the call is inconclusive, the potency comes from a doubtful curve fit. Potency is read from the fitted curve at half-maximal effect."}
{"experiment": "A quantitative high throughput screen for small molecules that induce DNA re-replication in SW480 colon adenocarcinoma cells; also: nearly all actives have a fitted effect of over 55% in size; as to re-replication activation: % of control where 0% means no effect.", "details": "Hoechst DNA content imaging, 48 h; re-replication activation: at 46.1 µM (top of the series) unless noted", "outline": "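SW480 cells exposed to compounds for 48 hr at 37 C, 5% CO2, then Hoechst-stained 40 min. Nuclear DNA content imaged by fluorescence scanning (405 nm excitation, 500-530 nm emission); re-replication scored as increased high-intensity nuclei.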"}
{"smiles": "Cc1noc(C)c1C(=O)OCC(=O)Nc1cccc(S(=O)(=O)N(C)C)c1", "Potency": "inactive"}
{"smiles": "CC(C)(C)n1cnc(C(N)=O)c1N", "Potency": "inconclusive: 1.3 µM [activator, full curve, poor fit]"}
{"smiles": "COc1ccc(-c2cc(OC)c3ccccc3n2)cc1", "Potency": "inactive"}
{"smiles": "O=C1NN(c2ccccc2)C(=O)C2C1C1C=CC2C12CC2", "note": "(stereo unspecified)", "Potency": "inconclusive: 6.51 µM [activator, single point]"}
{"smiles": "Cc1nc(-c2cccc(S(=O)(=O)N3CC(C)OC(C)C3)c2)cs1", "note": "(stereo unspecified)", "re-replication activation": "inactive: -3.08% [at 9.22 µM]"}
{"smiles": "CCCc1cc2c(=O)c(-c3ccc4c(c3)OCCO4)coc2cc1OC(=O)c1ccco1", "Potency": "inactive"}
{"smiles": "Cc1ccc2nc(-c3cccnc3)cc(C(=O)Nc3ccccc3[N+](=O)[O-])c2c1", "Potency": "inconclusive: 16.4 µM [activator, single point]"}
{"smiles": "COC(=O)c1c(NC(=O)C(Cl)Cl)sc2c1C(C(=O)OC)CC2", "note": "(stereo unspecified)", "Potency": "inconclusive: 23.1 µM [activator, partial curve, poor fit]"}
{"smiles": "Cc1ccccc1C(=O)Nc1cccc(NC(=S)NC(=O)c2cccs2)c1", "Potency": "inactive"}
{"smiles": "CC(C)(C)c1cc(OS(C)(=O)=O)ccc1O", "Potency": "inactive"}
{"smiles": "COc1ccccc1N1CCN(CC(O)COc2ccc(C)c(C)c2)CC1", "note": "(stereo unspecified)", "Potency": "inconclusive: 0.398 µM [activator, full curve, poor fit]"}
{"smiles": "Cc1nn(-c2ccccc2)c(C)c1/C=N/Nc1nc2ccccc2[nH]1", "Potency": "inconclusive: 20.6 µM [activator, single point]"}
{"smiles": "O=C1c2cccc3c(N4CCCCC4)ccc(c23)C(=O)N1c1ccccc1O", "Potency": "active: 18.4 µM"}
{"smiles": "COc1ccccc1C(=O)Nc1ccc(S(=O)(=O)N2CCCCC2)cc1", "Potency": "inactive"}
{"smiles": "COc1cccc(/C=N/NC(=O)c2[nH]c(C)c(C(=O)N/N=C/c3cccc(OC)c3O)c2C)c1O", "Potency": "inconclusive: 13 µM [activator, single point]"}
{"smiles": "NC(=O)CN1C(=O)C2C3C=CC(C3)C2C1=O", "note": "(stereo unspecified)", "Potency": "inactive"}
{"smiles": "CCOC(=O)C1=C(c2ccccc2)N=c2s/c(=C\\c3cccc(O)c3)c(=O)n2C1c1cccs1", "note": "(stereo unspecified)", "Potency": "inconclusive: 29.1 µM [activator, single point]"}
{"smiles": "O=C(Nc1ccc2ncccc2c1)c1ccccc1Cl", "Potency": "inconclusive: 14.6 µM [activator, partial curve, poor fit]"}
{"smiles": "Cc1ccc(OCCNC(=O)c2ccccc2SCC(=O)N2CCCC2)cc1", "Potency": "inactive"}
{"smiles": "COc1ccc([N+](=O)[O-])cc1NS(=O)(=O)c1ccc(C)cc1", "Potency": "inactive"}
{"smiles": "Cc1ccc(NC(=O)C(Cc2ccccc2)N2C(=O)C3C4CCC(C4)C3C2=O)cc1Cl", "note": "(stereo unspecified)", "Potency": "inconclusive: 14.6 µM [activator, partial curve, poor fit]"}
{"smiles": "COc1ccccc1C(=O)N1CCN(c2nc3cc(C)c(C)cc3cc2C#N)CC1", "Potency": "inconclusive: 31.6 µM [activator, single point]"}
{"smiles": "O=C(CCC(=O)c1ccccc1)Nc1ccc(C(=O)O)cc1", "Potency": "inconclusive: 5.8 µM [activator, partial curve, poor fit]"}
{"smiles": "O=C(Nc1ccc(S(=O)(=O)N2CCOCC2)cc1)c1cc(-c2cc(Cl)ccc2O)n[nH]1", "Potency": "inconclusive: 10.3 µM [activator, partial curve, poor fit]"}
{"smiles": "Cc1cccc(Nc2nc(N)c([N+](=O)[O-])c(N3CC(C)CC(C)C3)n2)c1", "note": "(stereo unspecified)", "Potency": "inconclusive: 23.1 µM [activator, single point]"}
{"smiles": "Cc1ccc(-n2c(C)cc(/C=N/Nc3ccc([N+](=O)[O-])cn3)c2C)cc1", "Potency": "inconclusive: 6.51 µM [activator, single point]"}
{"smiles": "CC12CCC(C(=O)N(CSC(=S)N/N=C\\c3ccccc3O)C1=O)C2(C)C", "note": "(stereo unspecified)", "Potency": "inconclusive: 18.4 µM [activator, single point]"}
{"smiles": "O=C(Oc1ccc(Br)cc1)c1n[nH]c(=O)c2ccccc12", "Potency": "inconclusive: 0.164 µM [activator, full curve, poor fit]"}
{"smiles": "COc1cc(C2C3CN(C)CC=C3C(C#N)=C(N)C2(C#N)C#N)ccc1OC(C)C", "note": "(stereo unspecified)", "Potency": "inactive"}
{"smiles": "Cc1cc2c(NC(=O)Nc3ccc(C(C)(C)C)cc3)cccc2nn1", "Potency": "inconclusive: 29.1 µM [activator, single point]"}
{"smiles": "CC(=O)c1ccc(N2CCN(S(=O)(=O)c3cccc4nonc34)CC2)cc1", "Potency": "inconclusive: 3.66 µM [activator, partial curve, poor fit]"}
{"smiles": "COc1ccc(C2C(C#N)=C(N)Oc3c2sc2nc(C)cc(C)c32)cc1", "note": "(stereo unspecified)", "Potency": "inconclusive: 29.1 µM [activator, single point]"}
{"smiles": "CCOc1ccc(C(CCc2ccccc2)NC(=O)c2ccccc2OC)cc1OCC", "note": "(stereo unspecified)", "Potency": "inconclusive: 29.1 µM [activator, single point]"}
{"smiles": "Cc1c(C)n(C(=O)CSc2nccn2C)c2ccccc12", "Potency": "inconclusive: 29.1 µM [activator, single point]"}
{"smiles": "CNC(=O)C1=C(C)NC(=S)NC1c1cc2c(cc1OC)CCCC2", "note": "(stereo unspecified)", "Potency": "inconclusive: 2.59 µM [activator, single point]"}
{"smiles": "O=C(N/N=C/c1c[nH]c2ccc(Br)cc12)c1ccn(Cc2ccc(Cl)cc2)n1", "Potency": "inactive"}
{"smiles": "COC(=O)c1c(NC(=O)CN2CCC3(O)CCCCC3C2c2ccc(F)cc2)sc(C)c1C", "note": "(stereo unspecified)", "Potency": "inconclusive: 29.1 µM [activator, single point]"}
{"smiles": "S=c1nn[nH]c2ccccc12", "Potency": "inactive"}
{"smiles": "CCOC(=O)C1(Cc2cccc(Cl)c2)CCCN(C(=O)c2c(CC)noc2C)C1", "note": "(stereo unspecified)", "Potency": "inactive"}
{"smiles": "CCC(=O)NC(c1ccco1)c1cc(Cl)c2cccnc2c1O", "note": "(stereo unspecified)", "Potency": "active: 2.59 µM"}
{"smiles": "CC(=O)c1ccc(NC(=S)Nc2ccc3cn[nH]c3c2)cc1", "Potency": "inactive"}
{"smiles": "CC1(C)CC(NC2C3CC4CC(C3)CC2C4)CC(C)(C)N1", "note": "(stereo unspecified)", "Potency": "inconclusive: 32.6 µM [activator, partial curve, poor fit]"}
{"smiles": "CCCCCCCCCC(=O)N[C@H](CN1CCOCC1)[C@H](O)c1ccccc1", "Potency": "inactive"}
{"smiles": "COc1ccc(/C=N\\Nc2ccccn2)c(OC)c1", "Potency": "inconclusive: 23.1 µM [activator, single point]"}
{"smiles": "Cc1[nH]c2nc3ccccc3n2c(=O)c1CCC(C)C", "Potency": "inactive"}
{"smiles": "CCCCOc1ccc(C(=O)C(CN2CCOCC2)c2ccccc2)cc1", "note": "(stereo unspecified)", "Potency": "active: 14.6 µM"}
